Source: patent US20070213359A1 (ACADIA Pharmaceuticals Inc., priority 2005, published 2007)
At least one compound was matched to its structure with a doubt left.

Amino acid sequences for entries named in this document (tags omitted).
UniProt Q92847, whole entry, looked up: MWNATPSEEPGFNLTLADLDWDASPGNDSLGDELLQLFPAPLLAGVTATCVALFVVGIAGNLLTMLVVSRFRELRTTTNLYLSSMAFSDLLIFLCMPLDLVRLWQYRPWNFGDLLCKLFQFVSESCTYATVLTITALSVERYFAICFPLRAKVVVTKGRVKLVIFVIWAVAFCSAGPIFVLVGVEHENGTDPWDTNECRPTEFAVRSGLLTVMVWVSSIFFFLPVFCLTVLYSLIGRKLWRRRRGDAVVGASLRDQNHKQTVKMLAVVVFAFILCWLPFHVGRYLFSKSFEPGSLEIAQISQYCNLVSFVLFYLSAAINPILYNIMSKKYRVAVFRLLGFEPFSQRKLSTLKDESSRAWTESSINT

Molecular target: Ghrelin receptor (Homo sapiens, UniProt Q92847)
Assay: pIC50
Parameters: expressed in transfected cells; host or cells: NIH3T3
From the text: Table printed on a drawing sheet, Figure 1
First copying reader's note: The table stands under a dose-response plot; chemical names broken over two lines at a hyphen are joined by a blank.

CC(=O)c1cn(CCCN2CCC(Oc3ccc(Cl)cc3)CC2)c2ccccc12
pIC50: 6.9
